Measurements as given in doi:10.1101/2025.06.18.657655, “Fibulin-4 is highly expressed in metastatic breast cancer and can serve as a target of peptide-based imaging probes and experimental therapeutics” (bioRxiv, 2025).
These are yes or no findings as the source states them, for the method shown. For some of these results: Binding seen in cells or lysates may run through a third protein. Some binding calls cover weakened binding; strength is not graded here.

Sequences of proteins named here, by UniProt entry; tags and fusion partners are left off. Residues count along the entry.
UniProt O95967, residues 24-443: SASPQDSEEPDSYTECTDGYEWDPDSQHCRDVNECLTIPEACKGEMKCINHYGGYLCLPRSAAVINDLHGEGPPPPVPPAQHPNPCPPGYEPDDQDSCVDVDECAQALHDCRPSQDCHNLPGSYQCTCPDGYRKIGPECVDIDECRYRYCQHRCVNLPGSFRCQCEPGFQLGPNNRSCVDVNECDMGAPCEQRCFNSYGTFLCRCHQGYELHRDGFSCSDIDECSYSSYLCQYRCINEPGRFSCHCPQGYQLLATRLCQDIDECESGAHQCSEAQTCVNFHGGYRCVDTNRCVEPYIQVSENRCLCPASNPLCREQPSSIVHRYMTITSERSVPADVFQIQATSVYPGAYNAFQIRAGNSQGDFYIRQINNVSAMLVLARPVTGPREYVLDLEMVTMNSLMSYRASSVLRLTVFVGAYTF
UniProt Q9WVJ9, residues 28-443: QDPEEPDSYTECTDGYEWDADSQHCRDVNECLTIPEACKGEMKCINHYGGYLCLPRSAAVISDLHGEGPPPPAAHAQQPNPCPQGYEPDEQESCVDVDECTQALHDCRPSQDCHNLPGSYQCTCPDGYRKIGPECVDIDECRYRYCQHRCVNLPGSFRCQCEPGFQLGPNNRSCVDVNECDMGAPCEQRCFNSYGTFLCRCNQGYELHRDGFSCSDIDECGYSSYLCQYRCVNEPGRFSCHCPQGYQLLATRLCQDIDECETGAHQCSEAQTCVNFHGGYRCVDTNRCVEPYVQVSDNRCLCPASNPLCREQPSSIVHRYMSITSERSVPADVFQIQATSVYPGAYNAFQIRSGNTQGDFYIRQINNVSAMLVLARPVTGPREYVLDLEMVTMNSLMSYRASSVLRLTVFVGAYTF

Tests used:
[1] = biological target: T1, biotinylated BLMP6, cyclic peptide …; experiment: pull-down; biotinylated BLMP6 immobilized on streptavidin-coated beads, incubated with proteins extracted from 4T1 cells; washing, elution, immunoblot with anti-FBLN4 antibodies; only the target purified
T1 sequence (peptide, biotin on the N-terminus; cysteine-cyclized): CRAGVGRGC

[2] = biological target: T1, biotinylated BLMP6, cyclic peptide …; experiment: BLI; Octet RED96; peptides loaded on streptavidin biosensors at 20 ug/ml in 1x kinetic buffer for 5 min; Fibulin-4 protein 0 to 400 nM, 300 sec association, 300 sec dissociation; 1:1 binding model; both purified
[3] = biological target: T2, cyclic peptide … (control); experiment: as above
T2 sequence (peptide, cyclic): CKGGRAKDC

[4] = biological target: FBLN4 ectopically expressed in HEK293 cells (UniProt O95967); experiment: binding of fluorophore-labelled peptide to cells; AZDye555-BLMP6 on HEK293 cells ectopically expressing FBLN4, against non-transfected control cells; only the binder purified

**Q.** Which binding [1] does the source give for “FBLN4 of mouse 4T1 cancer cells (from UniProt Q9WVJ9 28-443)” here?
**A.** binds

**Q.** What does the source list for “Fibulin-4 protein (Abcam, 182808) (from UniProt O95967 24-443)”?
**A.** binding [2]: binds; binding [3]: no binding (tested: 0 to 400 nM)

B1: AZDye555-BLMP6 (peptide)
peptide: CRAGVGRGC
modifications: AZDye555 on the N-terminus; cysteine-cyclized
**Q.** B1 was tested. Which binding [4] did it give?
**A.** binds
